# Inconclusive means that the source gave no clear call. Such entries were picked first, then a sample of the others. Potencies of inconclusive entries are doubtful fits and often do not repeat. Activity calls are given as the source filed them. Rule for the calls: active = hit-call score of the fitted dose curve at least 0.9, where 1 is the maximum; inconclusive = response in the unintended direction; inactive = score below 0.9.
# By UniProt entry, the sequences of proteins in these tests, tags left out. Where a name states a change or a piece, a line headed by the entry shows the natural chain unless it says otherwise.
# UniProt Q92753: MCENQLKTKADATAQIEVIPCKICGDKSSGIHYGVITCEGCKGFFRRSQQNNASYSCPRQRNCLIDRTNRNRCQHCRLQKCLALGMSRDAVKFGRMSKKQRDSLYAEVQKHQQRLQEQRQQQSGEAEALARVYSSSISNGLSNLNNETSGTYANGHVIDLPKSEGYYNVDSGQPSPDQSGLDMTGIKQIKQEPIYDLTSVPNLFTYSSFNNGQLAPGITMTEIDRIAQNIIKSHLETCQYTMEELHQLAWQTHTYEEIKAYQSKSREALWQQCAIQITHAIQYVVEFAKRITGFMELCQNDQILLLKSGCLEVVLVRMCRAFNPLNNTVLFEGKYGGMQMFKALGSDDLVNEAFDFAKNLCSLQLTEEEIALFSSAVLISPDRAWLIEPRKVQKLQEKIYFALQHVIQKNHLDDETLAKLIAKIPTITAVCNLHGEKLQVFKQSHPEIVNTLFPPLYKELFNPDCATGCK
# Target: human RAR-related Orphan Receptor beta (RORb), RORB (gene 6096) (UniProt Q92753)
# Assay: ATG_RORb_TRANS: Attagene TRANS-FACTORIAL HepG2 Assay for human RAR-related Orphan Receptor beta (RORb) (AID 2283010);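 for AC50: potency for increased reporter mRNA meaning activation of RORb-Gal4 chimera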
# Procedure: ATG_TRANS is a cell-based, multiplexed-readout assay that uses HepG2, a human liver cell line, with measurements taken at 24 hours after chemical dosing in a 24-well plate.ATG_RORb_TRANS is one of 30 assay component(s) measured or calculated from the ATG_TRANS assay. It is designed to make measurements of mRNA induction, a form of inducible reporter, as detected with fluorescence intensity signals by Reverse transcription polymerase chain reaction (RT-PCR) and Capillary electrophoresis technology.Data from the assay component ATG_RORb_TRANS was analyzed into 1 assay endpoint. This assay endpoint, ATG_RORb_TRANS, was analyzed in the positive analysis fitting direction relative to DMSO as the negative control and baseline of activity. Using a type of inducible reporter, measures of mRNA for gain-of-signal activity can be used to understand the reporter gene at the transcription factor-level as they relate to the gene RORB. Furthermore, this assay endpoint can be referred to as a primary readout, because this assay has produced multiple assay endpoints where this one serves a reporter gene function. To generalize the intended target to other relatable targets, this assay endpoint is annotated to the nuclear receptor intended target family, where the subfamily is orphan.
# Human liver HepG2 cells are transiently transfected with multiple reporter transcription units (MRTUs) in 6-well plates using FuGene 6 reagent (Roche; 3 ml FuGene/1 mg DNA). The MRTU constructs are regulated by a cis-regulating element (promoter). […] A major difference between the CIS and TRANS system is that in CIS activities of endogenous TFs are measured, whereas the TRANS assay evaluates changes in activities of exogenous, chimeric NR-Gal4 proteins. […] At the end of 24 hour incubation, total RNA was isolated using TriZol reagent (Invitrogen). The isolated RNA is then reverse-transcribed using oligo(dT) primer and Mo-MLV reverse transcriptase (Invitrogen) with DNAse I (Ambion) treatment for 30 min. The one-tenth of the produced cDNA was amplified by PCR using Taq DNA polymerase (Invitrogen) and two reporter sequence-specific primers. The PCR products were fluorescently labeled by primer extension with 6-arboxyfluorescein (6-FAM) 5'-labeled reporter sequence-specific primer (2 min at 95 C, 20 s at 68 C and 10 min at 72 C) and these products were digested with 5U of HpaI (New England Biolabs) for 2h at 37 C. The fragments were purified using Qiaquick PCR columns (Qiagen), analyzed on an ABI 3130xL genetic analyzer (Applied Biosystems) with peak positions identified by using a set of X-rhodamine (ROX)-labeled MapMarker1000 molecular weight standards (BioVentures). The raw capillary electrophoresis data was processed using Attagraph software (Attagene).
SMILES,AC50,outcome
CCCCOC(=O)C(C)OC(=O)CCC (stereo not given),inconclusive: 100 µM,
Cc1ncc([N+](=O)[O-])n1CCO,,inactive
CCCCCCOC(=O)CCC,inconclusive: 5.37 µM,
C=CCOC(=O)c1ccc(C(=O)OCC=C)c(C(=O)OCC=C)c1,inconclusive: 100 µM,
CN(N=O)C(=O)N[C@@H]1[C@@H](O)[C@H](O)[C@@H](CO)O[C@@H]1O,,inactive
CCCOc1sc(C(=O)N2CCC(c3cc(CN)ccc3F)CC2)c(C)c1Br,,inactive
Cc1occc1C(=O)Nc1ccc(C(=O)N2CCC(F)(F)/C(=C\C(=O)N3CCC(N4CCCCC4)CC3)c3ccccc32)cc1,inconclusive: 17.9 µM,
COC(=O)CCCC(=O)OC,,inactive
OCC(F)(F)C(F)(F)C(F)(F)CO,inconclusive: 150 µM,
CC(C)=CCCC(C)CCOC=O (stereo not given),inconclusive: 100 µM,
Nc1nc2ccc([N+](=O)[O-])cc2s1,inconclusive: 100 µM,
CC=CC(F)(F)C(F)(F)C(F)(F)F,inconclusive: 150 µM,
CC(CN1c2ccccc2Sc2ccccc21)N(C)C (stereo not given),inconclusive: 56.4 µM,
O=C(O)c1cc(O)c2ccccc2c1O,,inactive
[Cl][Nd]([Cl])[Cl],inconclusive: 100 µM,
CCC1CCCCC1,,inactive

SMILES,AC50,outcome
Cc1cc(=O)[nH]c(=S)[nH]1,,inactive
Cc1cc(C)c(O)c(C(C)(C)C)c1,,inactive
O=C1c2ccccc2C(=O)N1CCc1noc(-c2ccc(CN3CCCCCC3)s2)n1,inconclusive: 31.3 µM,
CC1(C)O[C@@H]2[C@@H](CO[C@@]3(COS(N)(=O)=O)OC(C)(C)O[C@@H]23)O1,inconclusive: 100 µM,
O=C1NC(=O)C(c2ccccc2)(c2ccccc2)N1,inconclusive: 0.477 µM,
COCCCOc1ccnc(CS(=O)c2nc3ccccc3[nH]2)c1C (stereo not given),inconclusive: 0.0823 µM,
CCCSc1ccc2nc(NC(=O)OC)[nH]c2c1,inconclusive: 0.95 µM,
CCCCC(CC)COC(=O)CCCCC(=O)OCC(CC)CCCC (stereo not given),,inactive
CN(C)CCOC(C)(c1ccccc1)c1ccccn1 (stereo not given),,inactive
COC(=O)CSc1cc(N=c2sc(=O)n3n2CCCC3)c(F)cc1Cl,inconclusive: 50 µM,
FC1CC(F)(F)C(F)(F)C1(F)F (stereo not given),inconclusive: 258 µM,
CC(C)(CO)[N+](=O)[O-],,inactive
CCCCC(CC)COC(=O)/C=C\C(=O)OCC(CC)CCCC (stereo not given),inconclusive: 100 µM,
C=CC(=O)O[C@H]1C[C@@H]2CC[C@@]1(C)C2(C)C,,inactive
CNS(=O)(=O)C(F)(F)C(F)(F)C(F)(F)C(F)(F)C(F)(F)C(F)(F)C(F)(F)C(F)(F)F,,inactive
Cc1ccccc1OCC(=O)O,inconclusive: 100 µM,
CCOC(=O)c1ccc(C)cc1,inconclusive: 100 µM,
c1ccc(CCc2ccccc2)cc1,inconclusive: 177 µM,
CCCCOC(=O)c1ccccc1,inconclusive: 24.2 µM,

# Single records, from the list above:
# CCCCOC(=O)C(C)OC(=O)CCC (stereo not given) as listed: AC50: inconclusive: 100 µM
# Cc1cc(=O)[nH]c(=S)[nH]1 as listed: outcome: inactive

# Reference: PubChem BioAssay (EPA / NIEHS)
